# Results deposited as PubChem BioAssay AID1159578 (Peter MacCallum Cancer Centre, 2015)
# Test: 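Genome-wide hunt for genes controlling movement of lymphatic endothelial cells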 (primary screen)
# System: human lymphatic endothelial cells
# Reagents: siRNA pool against human genes, 40 nM
# Timing: 48 h after transfection
# Read-out: 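Cells stained with dye and imaged after a scratch; covered wound area and nuclei counted, duplicates averaged, migration set against mock wells and turned into a robust z-score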
# Reading the numbers: migration robust z-score: higher = faster migration into the scratch; migration relative to mock: higher = more scratch area covered than mock; nuclei per well: higher = more cells in the well
# Call rule: 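Pools averaging fewer than 3300 nuclei are never called; remaining pools count as changed when migration robust z lies outside -2 to 2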
# Calls: active = migration changed; inactive = no migration change, or too few cells
# The deposit covers about 18,000 reagents; shown is a part drawn at random. About 1,030 of them (5.7%) count as active. 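Inactive calls also include pools with fewer than 3300 nuclei, whose migration was not assessed.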 Raw values vary from plate to plate and are shown uncorrected. Entries without a mark were called inactive.
Target gene,migration robust z-score,migration class with cell-count check,migration relative to mock,"nuclei per well, duplicate mean"
LARGE2,0.39,migration z between -2 and 2; enough cells,0.88,4567
SRP54,0,migration z between -2 and 2; enough cells,0.88,5978
PANK1,-0.29,migration z between -2 and 2; enough cells,0.75,4270
SYS1,-2.96,under 3300 nuclei; migration not judged,0.12,1496
KATNB1,0.64,migration z between -2 and 2; enough cells,1.05,6010
ACTR6,1.36,migration z between -2 and 2; enough cells,1.23,5894
CH25H,-0.1,migration z between -2 and 2; enough cells,0.78,5141
RPS6KC1,-0.78,migration z between -2 and 2; enough cells,0.66,4776
SPANXN2,0.2,migration z between -2 and 2; enough cells,0.94,5369
TRAFD1,-1.27,migration z between -2 and 2; enough cells,0.56,6173
RAD51D,0.08,migration z between -2 and 2; enough cells,0.82,6821
BMPR1A,1.43,migration z between -2 and 2; enough cells,1.08,6083
PEMT,-0.34,migration z between -2 and 2; enough cells,0.74,5842
JAGN1,1.14,migration z between -2 and 2; enough cells,1.18,6811
MIEN1,-1.18,migration z between -2 and 2; enough cells,0.58,3716
ADCY5,-0.1,migration z between -2 and 2; enough cells,0.78,5078
HDIP1,0.3,migration z between -2 and 2; enough cells,0.97,4942
WBP2NL,-0.03,migration z between -2 and 2; enough cells,0.88,6490
NSA2,-1.62,migration z between -2 and 2; enough cells,0.47,4299
TMPRSS11E,0.31,migration z between -2 and 2; enough cells,0.86,4728

Continued (2 carried over from the part before).
Target gene,migration robust z-score,migration class with cell-count check,migration relative to mock,"nuclei per well, duplicate mean"
NSA2,-1.62,migration z between -2 and 2; enough cells,0.47,4299
TMPRSS11E,0.31,migration z between -2 and 2; enough cells,0.86,4728
ZNF721,-0.5,migration z between -2 and 2; enough cells,0.75,5510
GLT8D1,0.99,migration z between -2 and 2; enough cells,1,6403
SFI1,0.22,migration z between -2 and 2; enough cells,0.94,5438
EXTL3,-0.36,migration z between -2 and 2; enough cells,0.74,6318
NAP1L5,1.35,migration z between -2 and 2; enough cells,1.23,5606
GPR153,-1.06,migration z between -2 and 2; enough cells,0.6,4918
CDC14A,-1.43,migration z between -2 and 2; enough cells,0.53,4725
CREBBP,-0.21,migration z between -2 and 2; enough cells,0.83,6937
FBP1,0.2,migration z between -2 and 2; enough cells,0.84,4265
ARHGAP11A,0.04,migration z between -2 and 2; enough cells,0.9,5810
CSF2RA,0.91,migration z between -2 and 2; enough cells,0.98,5324
PCDHB6,-0.29,migration z between -2 and 2; enough cells,0.81,6559
TFDP3,0.02,migration z between -2 and 2; enough cells,0.89,5799
PHC1,0.32,migration z between -2 and 2; enough cells,0.97,5857
HES7,-1.27,migration z between -2 and 2; enough cells,0.56,4302
PPIG,0.96,migration z between -2 and 2; enough cells,0.99,5570
BLCAP,0.28,migration z between -2 and 2; enough cells,0.96,5126
BICRAL,0.45,migration z between -2 and 2; enough cells,1.01,5799
ACVR1C,1.29,migration z between -2 and 2; enough cells,1.05,3546
